These are yes or no findings as the source states them, for the method shown. Binding seen in cells or lysates may run through a third protein. A yes stands for co-enrichment or nearness to the bait. Other partners may have been found.
Key:
Experiment in all cases: affinity purification with mass spectrometry
Conditions in all cases: remark: other sources report otherwise
[1] = target: T1, TAP-Upf1-FL (S. cerevisiae), P30771
T1 chain: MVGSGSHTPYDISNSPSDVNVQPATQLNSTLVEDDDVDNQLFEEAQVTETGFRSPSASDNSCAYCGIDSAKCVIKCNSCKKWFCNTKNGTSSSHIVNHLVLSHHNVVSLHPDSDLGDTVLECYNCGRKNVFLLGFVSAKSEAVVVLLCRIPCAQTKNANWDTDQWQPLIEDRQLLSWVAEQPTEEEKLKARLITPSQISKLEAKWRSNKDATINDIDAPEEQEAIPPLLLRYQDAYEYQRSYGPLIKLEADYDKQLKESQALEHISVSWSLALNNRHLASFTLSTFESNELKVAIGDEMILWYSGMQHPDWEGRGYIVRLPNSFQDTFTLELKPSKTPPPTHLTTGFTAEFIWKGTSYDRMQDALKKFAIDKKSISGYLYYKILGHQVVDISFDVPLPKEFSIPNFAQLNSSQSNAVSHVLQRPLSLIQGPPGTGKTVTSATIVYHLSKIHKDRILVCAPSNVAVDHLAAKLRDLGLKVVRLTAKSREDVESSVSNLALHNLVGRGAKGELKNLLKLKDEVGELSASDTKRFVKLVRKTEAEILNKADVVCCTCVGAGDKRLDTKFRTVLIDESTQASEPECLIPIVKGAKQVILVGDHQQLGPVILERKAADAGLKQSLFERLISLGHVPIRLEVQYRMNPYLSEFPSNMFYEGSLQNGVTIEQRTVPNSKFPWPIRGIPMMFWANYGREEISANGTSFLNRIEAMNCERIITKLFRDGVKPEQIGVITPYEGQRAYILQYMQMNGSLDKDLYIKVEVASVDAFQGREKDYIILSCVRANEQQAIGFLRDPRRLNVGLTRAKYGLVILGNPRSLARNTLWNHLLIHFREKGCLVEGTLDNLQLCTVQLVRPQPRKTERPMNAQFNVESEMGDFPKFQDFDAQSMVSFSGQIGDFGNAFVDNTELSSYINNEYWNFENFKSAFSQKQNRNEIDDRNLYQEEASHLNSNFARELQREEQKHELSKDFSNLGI

[2] = target: T2, Upf1-TAP (S. cerevisiae), P30771
T2 chain: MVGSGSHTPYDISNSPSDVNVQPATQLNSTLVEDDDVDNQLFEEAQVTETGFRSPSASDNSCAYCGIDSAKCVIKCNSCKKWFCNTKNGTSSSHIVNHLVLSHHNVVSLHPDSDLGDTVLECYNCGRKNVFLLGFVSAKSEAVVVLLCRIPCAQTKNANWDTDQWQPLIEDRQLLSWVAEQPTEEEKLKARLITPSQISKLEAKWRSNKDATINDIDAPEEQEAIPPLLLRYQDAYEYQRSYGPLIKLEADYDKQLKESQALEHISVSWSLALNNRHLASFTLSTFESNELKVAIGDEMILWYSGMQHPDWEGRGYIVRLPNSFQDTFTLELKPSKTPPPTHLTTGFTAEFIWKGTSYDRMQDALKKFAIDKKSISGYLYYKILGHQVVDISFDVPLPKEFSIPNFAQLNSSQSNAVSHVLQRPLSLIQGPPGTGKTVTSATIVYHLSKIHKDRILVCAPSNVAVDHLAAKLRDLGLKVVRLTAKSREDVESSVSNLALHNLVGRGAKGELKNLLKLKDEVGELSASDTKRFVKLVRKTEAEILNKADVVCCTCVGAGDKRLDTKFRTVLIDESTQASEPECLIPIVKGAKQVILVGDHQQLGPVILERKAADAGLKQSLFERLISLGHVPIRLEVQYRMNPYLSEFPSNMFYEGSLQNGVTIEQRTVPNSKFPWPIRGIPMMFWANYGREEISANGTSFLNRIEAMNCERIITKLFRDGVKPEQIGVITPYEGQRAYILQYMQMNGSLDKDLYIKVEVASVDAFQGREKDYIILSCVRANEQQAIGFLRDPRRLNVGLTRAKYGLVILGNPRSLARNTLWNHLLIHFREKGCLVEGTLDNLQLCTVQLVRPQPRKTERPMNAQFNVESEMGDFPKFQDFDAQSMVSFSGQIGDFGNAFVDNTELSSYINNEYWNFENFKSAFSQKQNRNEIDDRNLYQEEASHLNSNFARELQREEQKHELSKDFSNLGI

[3] = target: T2, Upf1-TAP (S. cerevisiae), P30771
[4] = target: T1, TAP-Upf1-FL (S. cerevisiae), P30771

Measured: binding

B1: Dcp2, P53550 1-970 (enzyme)
chain: MSLPLRHALENVTSVDRILEDLLVRFIINCPNEDLSSVERELFHFEEASWFYTDFIKLMNPTLPSLKIKSFAQLIIKLCPLVWKWDIRVDEALQQFSKYKKSIPVRGAAIFNENLSKILLVQGTESDSWSFPRGKISKDENDIDCCIREVKEEIGFDLTDYIDDNQFIERNIQGKNYKIFLISGVSEVFNFKPQVRNEIDKIEWFDFKKISKTMYKSNIKYYLINSMMRPLSMWLRHQRQIKNEDQLKSYAEEQLKLLLGITKEEQIDPGRELLNMLHTAVQANSNNNAVSNGQVPSSQELQHLKEQSGEHNQQKDQQSSFSSQQQPSIFPSLSEPFANNKNVIPPTMPMANVFMSNPQLFATMNGQPFAPFPFMLPLTNNSNSANPIPTPVPPNFNAPPNPMAFGVPNMHNLSGPAVSQPFSLPPAPLPRDSGYSSSSPGQLLDILNSKKPDSNVQSSKKPKLKILQRGTDLNSIKQNNNDETAHSNSQALLDLLKKPTSSQKIHASKPDTSFLPNDSVSGIQDAEYEDFESSSDEEVETARDERNSLNVDIGVNVMPSEKDSRRSQKEKPRNDASKTNLNASAESNSVEWGPGKSSPSTQSKQNSSVGMQNKYRQEIHIGDSDAYEVFESSSDEEDGKKLEELEQTQDNSKLISQDILKENNFQDGEVPHRDMPTESNKSINETVGLSSTTNTVKKVPKVKILKRGETFASLANDKKAFDSSSNVSSSKDLLQMLRNPISSTVSSNQQSPKSQHLSGDEEIMMMLKRNSVSKPQNSEENASTSSINDANASELLGMLKQKEKDITAPKQPYNVDSYSQKNSAKGLLNILKKNDSTGYPRTEGGPSSEMSTSMKRNDATNNQELDKNSTELLNYLKPKPLNDGYENISNKDSSHELLNILHGNKNSSAFNNNVYATDGYSLASDNNENSSNKLLNMLQNRSSAINEPNFDVRSNGTSGSNELLSILHRK
binds: [1] | [2] | [3] | [4]
